Measured values taken from patent US20210301005A1.

By UniProt entry, the sequences of proteins in these tests, tags left out. Where a name states a change or a piece, a line headed by the entry shows the natural chain unless it says otherwise.
UniProt P27090: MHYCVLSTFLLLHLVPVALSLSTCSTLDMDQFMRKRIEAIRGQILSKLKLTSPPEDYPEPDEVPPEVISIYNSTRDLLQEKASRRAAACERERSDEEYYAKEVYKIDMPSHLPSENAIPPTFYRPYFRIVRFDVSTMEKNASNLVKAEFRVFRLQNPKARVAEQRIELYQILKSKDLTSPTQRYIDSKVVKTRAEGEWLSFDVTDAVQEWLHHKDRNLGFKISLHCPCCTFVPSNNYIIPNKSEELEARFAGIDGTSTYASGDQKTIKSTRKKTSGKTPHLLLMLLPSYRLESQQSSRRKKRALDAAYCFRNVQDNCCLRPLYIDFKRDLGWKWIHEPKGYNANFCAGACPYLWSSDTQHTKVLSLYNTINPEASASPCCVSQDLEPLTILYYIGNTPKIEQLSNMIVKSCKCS

Target: mouse TGFβ2, mature peptide (mouse) (UniProt P27090)
Experiment: Biacore SPR (FIG. 55A)

B1: 6F12 (antibody, V domains shown)
VH: QVQLKESGPGLVQPSQTLSLTCTVSGFSLTTYNVHWVRQPPGKGLEWMGLIWNTGGTRYNSALKSRLSISKDTSKSQVFLRMNSLQTEDTATYYCARDPVPNKWHFDFWGPGTMVTVSS
VL: DIQMTQSPASLSASLGETVTIECLASEDIYSNLAWYQQKPGKSPQLLIYDARSLQDGVPSRFSGSESGPQYSLEINSLQSEDAVTYFCQQHHAYPFTFGSGTKLEIK
With B1 the binding was “binds”.

Results are given in words; binding and its absence hold for the method and conditions named. A result given as binding can be weak or reduced; the word gives no strength.
